Data source: PubChem BioAssay AID504791 (Drosophila RNAi Screening Center, 2011)
In all, the deposit lists about 23,000 reagents; this is a random part of those with a known target gene and a result. Of all reagents, 199 (0.86%) were called active. 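Plate-scaled ratios behind the calls are not deposited; printed light signals are raw; many rows marked increased or decreased are still called inactive.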 The numbers tell different reagents against one gene apart. Names joined by + are all predicted targets of the reagent.

Screen: 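Genes of the fly required for silencing by miRNA, siRNA or endo-siRNA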 (primary screen)
Cells: Drosophila S2-derived reporter cells
Knock-down reagent: long dsRNA against Drosophila genes, about 150-250 ng dsRNA per well (siRNA assay); about 80-120 ng (miRNA assay)
Duration: about 5 days (siRNA assay); about 4 days (miRNA assay)
Treatment: copper sulfate induction of reporters: 25 µM (siRNA assay); 200 mM stated (miRNA assay), 1-2 days before reading
Detection: 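Per-well ratio of Renilla over firefly light, expressed relative to that plate's average ratio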
Direction: siRNA reporter hit score: higher = 3 marks a strong hit with raised ratio; -3 a strong hit with lowered ratio
Units: stable assay Renilla, run 1 in luminescence; stable assay firefly, run 1 in luminescence
Rule for the call: 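First-pass picks had plate-scaled ratios over 1.5 for the siRNA assay, over 1.6 for the miRNA assay, or under 0.6; two distinct dsRNAs had to score alike on retest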

Depletion of CG30287 resulted in: stable assay Renilla, run 1 = 5966; stable assay firefly, run 1 = 4.27e5; inactive.
Depletion of CG11269 resulted in: stable assay Renilla, run 1 = 6427; stable assay firefly, run 1 = 3.89e5; inactive.
For CG6770, the values are stable assay Renilla, run 1 = 4551; stable assay firefly, run 1 = 4.71e5; inactive.
CG12360 (retired record) showed stable assay Renilla, run 1 = 7302; stable assay firefly, run 1 = 5.15e5; inactive.
Against CG31404, the entry reads stable assay Renilla, run 1 = 7152; stable assay firefly, run 1 = 3.12e5; inactive.
l(2)k09913 (lethal (2) k09913) gave stable siRNA reporter change reporter ratio raised past the hit cutoff; stable assay Renilla, run 1 = 39495; stable assay firefly, run 1 = 4.04e5; inactive.
Against Rpt5 (Regulatory particle triple-A ATPase 5) #1, the values are siRNA reporter hit score -3; stable siRNA reporter change reporter ratio raised past the hit cutoff; miRNA reporter change reporter ratio raised past the hit cutoff; stable assay Renilla, run 1 = 6439; stable assay firefly, run 1 = 1.48e5; active.
Knock-down of Rpt5 (Regulatory particle triple-A ATPase 5) #2 came out at: miRNA reporter change reporter ratio raised past the hit cutoff; active.
CG34310 gave stable assay Renilla, run 1 = 5686; stable assay firefly, run 1 = 6.72e5; inactive.
With knock-down of Had2 (beta Hydroxy acid dehydrogenase 2) the results were stable assay Renilla, run 1 = 8400; stable assay firefly, run 1 = 4.36e5; inactive.
Knock-down of SmD2 (Small ribonucleoprotein particle protein SmD2) came out at: stable assay Renilla, run 1 = 11940; stable assay firefly, run 1 = 4.33e5; inactive.
Silencing of TwdlN (TweedleN) resulted in: stable assay Renilla, run 1 = 6611; stable assay firefly, run 1 = 5.34e5; inactive.
Against CG10283, the entry reads stable assay Renilla, run 1 = 7642; stable assay firefly, run 1 = 1.02e6; inactive.
Silencing of CG31917 + Tfb5 #1 resulted in: stable assay Renilla, run 1 = 7698; stable assay firefly, run 1 = 4.84e5; inactive.
Against CG31917 + Tfb5 #2, the entry reads stable assay Renilla, run 1 = 9860; stable assay firefly, run 1 = 6.24e5; inactive.
Against CG42633, the values are stable assay Renilla, run 1 = 7087; stable assay firefly, run 1 = 3.84e5; inactive.
Knock-down of Uch-L5 (Ubiquitin carboxy-terminal hydrolase L5) came out at: stable assay Renilla, run 1 = 8027; stable assay firefly, run 1 = 4.38e5; inactive.
CG31848 gave stable assay Renilla, run 1 = 5486; stable assay firefly, run 1 = 4.28e5; inactive.
Silencing of Rpn3 (Regulatory particle non-ATPase 3) gave: stable assay Renilla, run 1 = 5147; stable assay firefly, run 1 = 2.13e5; inactive.

Sorted by “stable assay firefly, run 1” (low to high): some entries from above
CG31917 + Tfb5 #1: stable assay Renilla, run 1 = 7698; stable assay firefly, run 1 = 4.84e5; call = inactive
TwdlN (TweedleN): stable assay Renilla, run 1 = 6611; stable assay firefly, run 1 = 5.34e5; call = inactive
CG10283: stable assay Renilla, run 1 = 7642; stable assay firefly, run 1 = 1.02e6; call = inactive
